In test [1] the target is T1, GFP-TRIM24 fusion protein (tripartite motif-containing 24) (not stated (human or mouse cDNA cloned)) (UniProt O15164).
T1 sequence: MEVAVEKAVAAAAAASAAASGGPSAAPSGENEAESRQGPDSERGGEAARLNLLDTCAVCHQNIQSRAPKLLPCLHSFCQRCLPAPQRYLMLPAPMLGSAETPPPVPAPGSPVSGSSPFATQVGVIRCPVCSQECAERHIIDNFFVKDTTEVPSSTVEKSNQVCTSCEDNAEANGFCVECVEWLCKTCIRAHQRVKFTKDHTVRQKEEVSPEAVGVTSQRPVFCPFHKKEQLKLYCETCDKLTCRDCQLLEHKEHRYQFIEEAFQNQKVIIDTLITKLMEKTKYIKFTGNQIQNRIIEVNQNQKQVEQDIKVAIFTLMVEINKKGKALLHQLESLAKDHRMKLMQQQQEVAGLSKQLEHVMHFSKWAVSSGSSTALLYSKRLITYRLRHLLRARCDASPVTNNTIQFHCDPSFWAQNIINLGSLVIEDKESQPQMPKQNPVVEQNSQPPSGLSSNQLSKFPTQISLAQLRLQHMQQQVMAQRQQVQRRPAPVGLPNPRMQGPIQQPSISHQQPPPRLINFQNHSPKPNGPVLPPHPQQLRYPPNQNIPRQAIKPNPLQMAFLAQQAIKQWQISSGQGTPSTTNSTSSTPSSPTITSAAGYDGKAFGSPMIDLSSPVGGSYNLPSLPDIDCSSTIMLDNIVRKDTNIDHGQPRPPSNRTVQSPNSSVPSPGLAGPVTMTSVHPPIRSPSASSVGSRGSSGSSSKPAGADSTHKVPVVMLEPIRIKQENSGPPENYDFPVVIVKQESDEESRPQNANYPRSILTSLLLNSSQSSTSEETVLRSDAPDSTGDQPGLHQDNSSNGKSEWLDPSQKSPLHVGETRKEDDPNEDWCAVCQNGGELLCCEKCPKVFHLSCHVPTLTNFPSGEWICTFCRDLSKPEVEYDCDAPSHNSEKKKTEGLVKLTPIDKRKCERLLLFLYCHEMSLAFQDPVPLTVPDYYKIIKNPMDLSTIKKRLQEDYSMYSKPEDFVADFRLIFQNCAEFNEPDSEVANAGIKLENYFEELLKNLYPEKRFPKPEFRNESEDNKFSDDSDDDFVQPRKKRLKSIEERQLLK
Nature of the test: co-IP; GFP-TRIM24 and Flag-XPO1 co-expressed in cells (Supplementary Fig. 2A); which protein was precipitated and the cell type are not given.

The chains behind the UniProt entries cited, without tags or fusion partners.
UniProt O14980: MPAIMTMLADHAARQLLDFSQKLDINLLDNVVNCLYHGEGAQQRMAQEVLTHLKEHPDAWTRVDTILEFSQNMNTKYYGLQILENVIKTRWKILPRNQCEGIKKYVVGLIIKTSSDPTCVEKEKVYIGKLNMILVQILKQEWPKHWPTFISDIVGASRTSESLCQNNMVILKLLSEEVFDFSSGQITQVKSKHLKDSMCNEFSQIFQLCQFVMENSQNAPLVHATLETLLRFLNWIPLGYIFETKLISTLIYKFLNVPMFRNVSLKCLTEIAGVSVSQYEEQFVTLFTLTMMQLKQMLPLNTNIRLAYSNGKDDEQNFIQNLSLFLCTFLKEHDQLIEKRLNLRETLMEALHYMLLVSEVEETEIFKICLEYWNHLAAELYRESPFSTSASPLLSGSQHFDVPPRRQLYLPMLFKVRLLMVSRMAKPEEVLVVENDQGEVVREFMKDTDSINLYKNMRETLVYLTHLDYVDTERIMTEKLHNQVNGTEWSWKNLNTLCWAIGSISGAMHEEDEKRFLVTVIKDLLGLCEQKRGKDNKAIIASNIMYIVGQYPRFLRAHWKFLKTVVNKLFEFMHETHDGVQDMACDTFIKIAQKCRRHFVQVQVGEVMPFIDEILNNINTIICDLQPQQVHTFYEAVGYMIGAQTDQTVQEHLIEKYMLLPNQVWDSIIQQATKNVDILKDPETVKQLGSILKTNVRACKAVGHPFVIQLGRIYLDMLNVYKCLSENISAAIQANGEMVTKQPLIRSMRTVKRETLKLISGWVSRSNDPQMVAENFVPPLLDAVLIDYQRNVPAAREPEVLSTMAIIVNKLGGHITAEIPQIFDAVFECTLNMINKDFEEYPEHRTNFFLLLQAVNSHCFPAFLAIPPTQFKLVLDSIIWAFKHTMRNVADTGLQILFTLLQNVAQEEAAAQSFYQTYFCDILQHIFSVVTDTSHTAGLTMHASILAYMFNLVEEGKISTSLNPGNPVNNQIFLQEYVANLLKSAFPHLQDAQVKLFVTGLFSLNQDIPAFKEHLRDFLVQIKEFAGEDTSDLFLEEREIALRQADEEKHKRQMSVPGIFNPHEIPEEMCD

Test [2] deals with T2, GFP-GST-NLS2 (second nuclear localisation signal of TRIM24 on a GFP-GST fusion protein) (not stated (human or mouse cDNA cloned)).
T2 sequence: VQPRKKRLKSIEE
The test can be described thus: co-IP; GFP-GST-NLS2 and Flag-XPO1 co-expressed in cells; reciprocal immunoprecipitation of GFP-GST-NLS2 (Supplementary Fig. 2D).

Test [3] has as its target T3, TRIM24, endogenous in mouse liver / primary hepatocytes (mouse (endogenous in primary hepatocytes)) (UniProt Q64127).
T3 sequence: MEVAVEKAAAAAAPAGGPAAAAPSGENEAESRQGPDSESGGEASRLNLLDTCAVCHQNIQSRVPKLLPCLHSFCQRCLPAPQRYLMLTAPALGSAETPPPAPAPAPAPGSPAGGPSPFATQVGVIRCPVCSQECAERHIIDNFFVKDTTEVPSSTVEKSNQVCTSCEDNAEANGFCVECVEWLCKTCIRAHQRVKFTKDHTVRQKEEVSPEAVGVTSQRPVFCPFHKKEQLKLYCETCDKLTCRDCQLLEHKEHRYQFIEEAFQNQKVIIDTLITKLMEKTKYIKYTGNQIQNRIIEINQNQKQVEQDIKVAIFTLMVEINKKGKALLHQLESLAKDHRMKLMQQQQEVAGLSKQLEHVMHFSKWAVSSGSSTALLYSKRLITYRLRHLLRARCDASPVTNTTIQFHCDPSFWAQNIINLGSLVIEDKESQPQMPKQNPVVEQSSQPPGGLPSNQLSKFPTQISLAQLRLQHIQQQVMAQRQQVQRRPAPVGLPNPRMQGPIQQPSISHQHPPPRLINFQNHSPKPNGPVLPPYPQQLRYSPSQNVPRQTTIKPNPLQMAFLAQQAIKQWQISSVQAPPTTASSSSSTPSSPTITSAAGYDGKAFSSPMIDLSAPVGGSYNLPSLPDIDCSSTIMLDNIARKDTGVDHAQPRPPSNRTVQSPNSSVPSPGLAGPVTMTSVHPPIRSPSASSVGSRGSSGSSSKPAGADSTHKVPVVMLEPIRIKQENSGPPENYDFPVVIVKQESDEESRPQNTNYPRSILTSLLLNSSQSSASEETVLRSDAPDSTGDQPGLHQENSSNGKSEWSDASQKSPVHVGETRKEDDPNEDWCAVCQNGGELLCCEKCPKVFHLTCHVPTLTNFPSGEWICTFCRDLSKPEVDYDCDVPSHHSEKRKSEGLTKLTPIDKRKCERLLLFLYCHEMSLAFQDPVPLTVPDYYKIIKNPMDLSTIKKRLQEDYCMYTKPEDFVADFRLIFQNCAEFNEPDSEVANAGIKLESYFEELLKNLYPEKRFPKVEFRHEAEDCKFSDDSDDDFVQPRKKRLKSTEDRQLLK
The test can be described thus: co-IP; endogenous TRIM24 immunoprecipitated with the TRIM24 antibody from lysates of mouse primary hepatocytes (text: liver lysates); endogenous P-body components detected by immunoblotting. For orientation: A western blot detects proteins with antibodies after separation by electrophoresis.

For test [4], the target named is Flag-tagged exportin-1 (XPO1) (UniProt O14980). The test can be described thus: co-IP; GFP-GST-NLS2 and Flag-XPO1 co-expressed in cells; immunoprecipitation of Flag-XPO1 (Supplementary Fig. 2C).

Results are given in words; binding and its absence hold for the method and conditions named. Binding seen in cells or lysates may run through a third protein. Some results given as binding are weak or reduced against the parent protein; the word gives no strength. For some of these results: Tags and fused reporters may be left off the sequences shown.

On to “Flag-tagged exportin-1 (XPO1) (from UniProt O14980 1-1071)”, for which the binding result in test [1] and in test [2] was “binds” in each case.

B1: LSM1, endogenous in mouse liver / primary hepatocytes (protein, UniProt Q8VC85 1-133)
chain: MNYMPGTASLIEDIDKKHLVLLRDGRTLIGFLRSIDQFANLVLHQTVERIHVGKKYGDIPRGIFVVRGENVVLLGEIDLEKESDTPLQQVSIEEILEEQRVQQQTRLEAEKLKVQTLKDRGLSIPRADTLDEY
Turning to B1, the binding entry in test [3] was “binds”.
For the molecule VQPRKKRLKSIEE (domain or fragment) [GFP-GST-NLS2 (second nuclear localisation signal of TRIM24 on a GFP-GST fusion protein)], in test [4], the binding entry is “binds”.

These data come from article PMC9270398.
